Measured values from the supplement of paper PMC10338343.
± gives the standard deviation. Only a part is listed here, and it is no random draw. Many of these values have a large error.

Each sequence was assayed on MIWI (PIWIL1) piRISC loaded with Kctd7 piRNA (30 nt) (assay: pre-steady-state target cleavage rate (min^-1); MIWI and MILI are mouse PIWI proteins and EfPiwi is from a freshwater sponge; tags in brackets are library labels; higher = faster piRNA-guided slicing of the target). Conditions: guide: Kctd7 piRNA 5'p-UGUUAAUCUCUCAGAGAAGGUGACAGUGAU; auxiliary factor: 500 nM mouse GTSF1.
Method: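 Cleave-'n-Seq: a library of target RNAs (target site embedded in constant flanks, ACAGCATTCCGCGTTAGTGATATCCG... 5' flank; DNA-blocked outside the site) at 0.1 nM was incubated with 1 nM active mouse MILI or MIWI piRISC (synthetic 5'-monophosphorylated piRNA guide) with or without 500 nM mouse GTSF1 at 33 °C for 1 min to 16 h. Uncleaved targets were sequenced and normalised to non-target controls, and the pooled three trials were fitted to a burst-and-steady-state model to give the pre-steady-state cleavage rate (min^-1; k3 is constrained to at most 1e-4). Sequence is the target site only; target names encode pairing extent (gX:gY) and contiguous / 1-mismatch / 2-mismatch / bulge geometry. Fits with R² ≤ 0 are excluded.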

Sequence	pre-steady-state target cleavage rate
UAGACUGAGUCCUUCUCUGAGAGAUUUUGA	0.000519 ± 0.01
UACACUGUCACCUUCUCUGAGAGAUUAACU [g2:g28:cont:t1U]	0.494 ± 0.059
UAGUGACAGACCUUCACUGAGAGAUUAUGA	0.00106 ± 0.014
UAGUGACAGAGCUACUCUGAGAGAUUAACA	0.000961 ± 0.0069
UAGUGACACACCUUCUCUGAGAGAAAAUGA	0.00219 ± 0.0053
UAGUGACAGACCUUCACUGAGAGUUUAACA	0.0305 ± 0.011
UAGUGACAGUGGAAGUCUGAGAUAUUAACA	< 0.0001
UAGUCUGUCACCUUCUCUGACUCAUUAAGA	0.000921 ± 0.0048
UAGUGACAGUGGUCUCUCUGAGAGAUUAACA	0.000533 ± 0.013
UAGUCUCUCACCUUCUGUGAGAGAUUAACA	0.00482 ± 0.0046
UAGUGACAGUGGAACUCUGAAGAGAUUAACA	0.000175 ± 0.03
UAGUGACUCACCUUCUCUGAGUCUUUUUGA	0.000431 ± 0.026
UUCACGUCACCUUCUCUGAGAGAUUAACA	0.702 ± 0.03
UAGUGACAGACCUUCUCUAGAGAUUAACA	0.00339 ± 0.0054
UAGUGACAGUCCUUUCUGAGAGAUUAACA	0.00238 ± 0.0037
AUCACUGUCACCUUCUCUGAGAGAUUAACU [g2:g30:cont:t1U]	0.526 ± 0.057
UAGUGACUCACCUUGAGUGAGAGAUUAUGA	0.000463 ± 0.023
UAGUCUGUCAGGUUCUCUGAGAGAUAUUGA	0.000411 ± 0.013
UAGUGAGUCACCUUGACUGAGAGAUAUUGA	0.000664 ± 0.011
UAGUGACAGUCCUAGUCUGAGAGAUUAACA	0.00106 ± 0.0076
UAGACUGUCACCUUCUCUGAGAGAUUAACC [g2:g27:cont:t1C]	0.322 ± 0.03
UAGUCUGUCACCUUCUCACUGAGAUAUUGA	0.00131 ± 0.0076
UUCACUGUCUCCUUCUCUGAGAGAUUAUGA	0.122 ± 0.034
UAGUGACAGACCUUCUCUGUCAGAUUAACA	0.00289 ± 0.0044

Sequence	pre-steady-state target cleavage rate
UUCACUGUCACCUUCUCUGACUCAUUUUGA	0.00173 ± 0.0046
UAGUGACACACCUUCUCUCUCAGAUUUUGA	0.000782 ± 0.016
UAGUGACUCACCUUGUCUGAGAGAUAUUGA	0.000937 ± 0.0068
UAGUGACAGUGGAUCUCUGAGACAUUUACA	0.000148 ± 0.029
UAGUGACAGACCUUCUCUGACACAUUAACA	0.00122 ± 0.0077
UAGUGACAGUCCUUCUCUCUCAGAUUAACA	0.000536 ± 0.013
UAGUGACAGUGGAAGAGACAGAGAAUAUCA	0.000355 ± 0.022
UAGUGACUCACCUUCUCUGAGUGAUAAACA	0.0392 ± 0.007
UAGACUGUCACCUUCUCUGAAGAGAUUAACA	0.00161 ± 0.0047
UAGUGACUGACCUUCUCUGAGAGAUUAUGA	0.00985 ± 0.0048
UAGUGACAGUCCAUCACUGAGAGAUUAACA	0.00137 ± 0.0069
UAGUGACAGUCCUUCUCUGAGUCAUUAAGA	0.000113 ± 0.023
UAGUGAGUCACCUUGAGUGAGAGAUAUUGA	0.00107 ± 0.007
UAGACUGUCGCCUUCUCUGAGAGAUUAACA	0.822 ± 0.064
UAGUGUGUCACGAUCUCUGAGAGAUUUUGA	0.0018 ± 0.0054
UACACUGUCACGAUCUCUGAGAGAUAUUGA	0.000865 ± 0.01
UAGACUGUCAGCUUCUCUGAGAGUUUAACA	0.0686 ± 0.011
UAGACUGUCACCUUCUCACAGAGAUUAUGA	0.00106 ± 0.0065
UAGUGACAGUGCUUCUCUGAGAGAAUUAACA	0.00265 ± 0.0031
UAGUGACACACCUUCUCUGAGACUUUUUGA	0.000268 ± 0.019
UAGUGACAGUCCUACUCUGAGUGAUUAACA	0.0011 ± 0.0069
UAGUGACAGUGCUUCUCUGAGUGAUUUACA	0.000108 ± 0.022
UAGUGACAGUGCUUCUCUGAGGAGAUUAACA	0.000196 ± 0.015
UAGUGACAGUGGACCUCUGAGAGAUUAACA	0.000319 ± 0.012

3 entries drawn at random from the list so far:
Sequence	pre-steady-state target cleavage rate
UAGUGACAGUCCUUUCUGAGAGAUUAACA	0.00238 ± 0.0037
UAGUGACAGACCUUCUCUGACACAUUAACA	0.00122 ± 0.0077
UAGACUGUCACCUUCUCUGAAGAGAUUAACA	0.00161 ± 0.0047

Next records

Sequence	pre-steady-state target cleavage rate
UAGUGACAGUGGAAGAGACAGAGAUUAUACA	0.000229 ± 0.037
UAGUGACUCACCUUCUCUGAGGAGAUUAACA	0.00114 ± 0.0084
UAGACUGUCACCUUCUCUGACAGAUUAUCA	0.00246 ± 0.0026
UAGUGACACACCUUCUCUGAUGAGAUUAACA	0.0017 ± 0.0056
UAGUGACAGUGCGUCUCUGAGAGAUUAACA	0.000761 ± 0.0065
AUCACUGUCACCUUCUCUGUCUCUAAUUGA [g12:g30:cont:t1A]	0.00282 ± 0.0043
UAGUGACAGACCUUCUCUGACUCAUUAACA	0.00115 ± 0.01
UAGUGACAGUGCUUCUCUGACACAUUAACA	0.000202 ± 0.031
UUGUCUGUCACCUUCUCUGAGAGAUUAACA	0.691 ± 0.031
UAGUCUGUCAGGUUCUCUGAGAGAUUAUGA	0.000884 ± 0.0088
AUCACUGUCACCUUCUCUGACUCUAAUUGA [g11:g30:cont:t1A]	0.00199 ± 0.0044
UAGUGACAGUGGAUCUCUGAGAGAUUAACU [g2:g17:cont:t1U]	0.000707 ± 0.0096
UAGUGACAGUGGAAGAGAGAGAGGAUUAACA	0.000336 ± 0.02
GUCACUGUCACCUUCUCUGAGAGAUUAACA	0.763 ± 0.04
UAGUGAGUCACCUUCUCUGAGUGAUAUUGA	0.00101 ± 0.0082
UAGUGACUGUGCUUCUCUGAGAGAUUAUGA	0.000213 ± 0.019
UAGUGACUCACCUUCUCUGACGAGAUUAACA	0.00145 ± 0.0048
UAGUGACAGUGGAAGAGUGACUCAUUAACA	0.0005 ± 0.012
UAGACUGUCACCUUCUCUGUCAGAUUAAGA	0.000825 ± 0.0062
UAGUGACAGACCUUCUCUGAGACUUUAACA	0.000805 ± 0.009
UUCACUGUCACCUUCUCUCAGAGAUUUACA	0.0958 ± 0.015
UAGUGACAGUCCUUCCUCUGAGAGAUUAACA	0.27 ± 0.027
